Reference: PMC7862700
The list shows a part of the results, in another mix than the full data. At the low end of the ranking, values are background and their order means little.

Sequences of proteins named here, by UniProt entry; tags and fusion partners are left off. A change or cut given only in a name is not applied to a line headed by its entry.
UniProt Q9Y603: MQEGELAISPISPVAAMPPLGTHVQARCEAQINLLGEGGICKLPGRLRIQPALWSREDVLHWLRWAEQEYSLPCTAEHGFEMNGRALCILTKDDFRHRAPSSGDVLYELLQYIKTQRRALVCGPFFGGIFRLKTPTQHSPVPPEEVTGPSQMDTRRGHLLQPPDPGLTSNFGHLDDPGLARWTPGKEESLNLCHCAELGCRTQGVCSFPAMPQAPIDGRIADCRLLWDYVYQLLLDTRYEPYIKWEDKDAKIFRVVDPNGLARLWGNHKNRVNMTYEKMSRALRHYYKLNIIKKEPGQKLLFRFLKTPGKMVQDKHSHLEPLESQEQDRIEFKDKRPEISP
UniProt P41212: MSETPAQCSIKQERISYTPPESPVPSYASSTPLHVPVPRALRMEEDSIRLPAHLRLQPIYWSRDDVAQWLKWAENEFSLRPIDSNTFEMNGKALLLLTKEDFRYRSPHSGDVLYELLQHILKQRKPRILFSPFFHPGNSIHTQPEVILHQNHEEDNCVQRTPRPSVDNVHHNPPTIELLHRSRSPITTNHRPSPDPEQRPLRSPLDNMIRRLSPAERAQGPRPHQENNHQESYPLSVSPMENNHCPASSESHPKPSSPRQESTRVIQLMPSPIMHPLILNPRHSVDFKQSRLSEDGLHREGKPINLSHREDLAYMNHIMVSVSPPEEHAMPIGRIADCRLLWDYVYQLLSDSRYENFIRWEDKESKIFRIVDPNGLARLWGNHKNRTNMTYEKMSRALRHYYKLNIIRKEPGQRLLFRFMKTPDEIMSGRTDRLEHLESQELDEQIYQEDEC

biological target: T1, ELF3 (UniProt P78545); assay: DAPPL (digital affinity profiling via proximity ligation, sequencing); details: 10 mM Tris-HCl pH 7.5, 50 mM NaCl, 1 mM DTT, 4% glycerol, room temperature, 30 min; GST-TFs on glutathione beads, 16-mer random dsDNA library, 0.1% …; high values mean tight binding; double strand, one strand shown; scale: fold enrichment (6-mer frequency, TF over GST control)
T1 sequence: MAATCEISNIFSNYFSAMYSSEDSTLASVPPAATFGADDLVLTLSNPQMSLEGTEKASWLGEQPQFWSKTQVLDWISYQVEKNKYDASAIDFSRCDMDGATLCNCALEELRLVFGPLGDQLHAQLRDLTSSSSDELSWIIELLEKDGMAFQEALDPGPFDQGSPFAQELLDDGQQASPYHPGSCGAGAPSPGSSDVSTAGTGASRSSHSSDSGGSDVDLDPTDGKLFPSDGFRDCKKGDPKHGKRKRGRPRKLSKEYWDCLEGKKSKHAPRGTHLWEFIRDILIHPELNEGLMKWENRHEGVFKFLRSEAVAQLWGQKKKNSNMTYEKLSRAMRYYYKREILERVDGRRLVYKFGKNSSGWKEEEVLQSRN

Sequence | binding signal
GCCCAT | 0.987
CGAAGG | 0.803
TCAGAC | 0.832
CAGACT | 1.04
GTTTAG | 0.845
TGGGTT | 1.11
GTGACT | 0.851
AACGCG | 1.02
ACGCGC | 0.927
GGACTC | 0.952
ATCACG | 1.01
GGGCAT | 0.719
GGCACC | 0.784
AGCTCG | 0.994
CGCACC | 0.994
CACCGC | 0.98
CACGGC | 0.977
CTAGGA | 0.987
CAAGCT | 0.91
CACGCA | 1.04

Sequence | binding signal
AACCAC | 1.21
AGTCTT | 0.925
GATCAA | 0.911
CTAGGG | 0.967
CAGTTC | 0.911
GGATCA | 0.796
CCACCG | 0.941
CGCACA | 0.956
TAAGGC | 0.99
CCAAGA | 0.996
AGCCCA | 1.04
CGTCAT | 0.933
AGCATG | 0.946
AGAACT | 0.857
TGGTCG | 0.924
TCCGAG | 0.857
TTAGAG | 0.929
ACTAGG | 0.991
ACGCCA | 0.841

biological target: ETV7 (UniProt Q9Y603); assay: as above; details: 10 mM Tris-HCl pH 7.5, 50 mM NaCl, 1 mM DTT, 4% glycerol, room temperature, 30 min; GST-TFs on glutathione beads, 16-mer random dsDNA library, 0.1% …; high values mean tight binding; double strand, one strand shown; scale: fold enrichment (6-mer frequency, TF over GST control)

Sequence | binding signal
GCCCAT | 0.935
CGAAGG | 0.912
TCAGAC | 0.853
CAGACT | 0.913
GTTTAG | 0.949
TGGGTT | 0.999
GTGACT | 0.805
AACGCG | 1.02
ACGCGC | 0.931
GGACTC | 0.954
ATCACG | 0.993
GGGCAT | 0.836
GGCACC | 0.789
AGCTCG | 0.977
CGCACC | 0.911
CACCGC | 0.978
CACGGC | 0.976
CTAGGA | 0.859
CAAGCT | 0.992
CACGCA | 0.983

Sequence | binding signal
AACCAC | 1.03
AGTCTT | 0.997
GATCAA | 0.987
CTAGGG | 0.881
CAGTTC | 0.91
GGATCA | 0.772
CCACCG | 1.06
CGCACA | 0.961
TAAGGC | 0.94
CCAAGA | 0.883
AGCCCA | 0.862
CGTCAT | 0.958
AGCATG | 0.873
AGAACT | 0.975
TGGTCG | 0.935
TCCGAG | 0.978
TTAGAG | 0.927
ACTAGG | 0.986
ACGCCA | 0.858

biological target: ETV6 (UniProt P41212); assay: as above; details: 10 mM Tris-HCl pH 7.5, 50 mM NaCl, 1 mM DTT, 4% glycerol, room temperature, 30 min; GST-TFs on glutathione beads, 16-mer random dsDNA library, 0.1% …; high values mean tight binding; double strand, one strand shown; scale: fold enrichment (6-mer frequency, TF over GST control)

Sequence | binding signal
GCCCAT | 0.934
CGAAGG | 0.956
TCAGAC | 0.859
CAGACT | 0.995
GTTTAG | 0.902
TGGGTT | 1
GTGACT | 0.971
AACGCG | 1.01
ACGCGC | 0.979
GGACTC | 0.95
ATCACG | 0.996
GGGCAT | 0.872
GGCACC | 0.793
AGCTCG | 0.998
CGCACC | 0.981
CACCGC | 0.995
CACGGC | 1.05
CTAGGA | 0.915
CAAGCT | 0.972
CACGCA | 0.998

Sequence | binding signal
AACCAC | 1.19
AGTCTT | 0.915
GATCAA | 1.07
CTAGGG | 0.842
CAGTTC | 0.907
GGATCA | 0.851
CCACCG | 1.06
CGCACA | 0.974
TAAGGC | 0.931
CCAAGA | 0.885
AGCCCA | 0.856
CGTCAT | 0.948
AGCATG | 0.964
AGAACT | 0.992
TGGTCG | 0.858
TCCGAG | 0.968
TTAGAG | 0.84
ACTAGG | 0.962
ACGCCA | 0.834
